{"sequences": {"note": "By UniProt entry, the sequences of proteins in these tests, tags left out. Where a name states a change or a piece, a line headed by the entry shows the natural chain unless it says otherwise. Residues count along the entry.", "UniProt Q6UWB1, residues 33-636": "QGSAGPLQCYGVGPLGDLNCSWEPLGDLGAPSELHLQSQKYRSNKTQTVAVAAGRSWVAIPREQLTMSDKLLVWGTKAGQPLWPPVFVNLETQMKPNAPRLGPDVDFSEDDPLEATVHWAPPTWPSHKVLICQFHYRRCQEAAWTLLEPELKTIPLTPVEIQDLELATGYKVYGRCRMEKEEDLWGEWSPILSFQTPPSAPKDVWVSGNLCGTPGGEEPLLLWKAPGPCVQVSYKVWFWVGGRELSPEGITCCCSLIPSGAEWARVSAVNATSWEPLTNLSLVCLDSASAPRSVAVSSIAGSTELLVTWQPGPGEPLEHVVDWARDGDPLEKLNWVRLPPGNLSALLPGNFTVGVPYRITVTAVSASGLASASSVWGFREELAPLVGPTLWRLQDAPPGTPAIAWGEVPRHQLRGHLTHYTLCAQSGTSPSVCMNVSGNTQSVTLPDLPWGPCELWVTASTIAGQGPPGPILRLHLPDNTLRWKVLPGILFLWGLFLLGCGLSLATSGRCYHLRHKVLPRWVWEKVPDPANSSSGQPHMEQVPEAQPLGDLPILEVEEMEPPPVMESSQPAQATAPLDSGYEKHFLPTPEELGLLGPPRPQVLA", "UniProt P40189": "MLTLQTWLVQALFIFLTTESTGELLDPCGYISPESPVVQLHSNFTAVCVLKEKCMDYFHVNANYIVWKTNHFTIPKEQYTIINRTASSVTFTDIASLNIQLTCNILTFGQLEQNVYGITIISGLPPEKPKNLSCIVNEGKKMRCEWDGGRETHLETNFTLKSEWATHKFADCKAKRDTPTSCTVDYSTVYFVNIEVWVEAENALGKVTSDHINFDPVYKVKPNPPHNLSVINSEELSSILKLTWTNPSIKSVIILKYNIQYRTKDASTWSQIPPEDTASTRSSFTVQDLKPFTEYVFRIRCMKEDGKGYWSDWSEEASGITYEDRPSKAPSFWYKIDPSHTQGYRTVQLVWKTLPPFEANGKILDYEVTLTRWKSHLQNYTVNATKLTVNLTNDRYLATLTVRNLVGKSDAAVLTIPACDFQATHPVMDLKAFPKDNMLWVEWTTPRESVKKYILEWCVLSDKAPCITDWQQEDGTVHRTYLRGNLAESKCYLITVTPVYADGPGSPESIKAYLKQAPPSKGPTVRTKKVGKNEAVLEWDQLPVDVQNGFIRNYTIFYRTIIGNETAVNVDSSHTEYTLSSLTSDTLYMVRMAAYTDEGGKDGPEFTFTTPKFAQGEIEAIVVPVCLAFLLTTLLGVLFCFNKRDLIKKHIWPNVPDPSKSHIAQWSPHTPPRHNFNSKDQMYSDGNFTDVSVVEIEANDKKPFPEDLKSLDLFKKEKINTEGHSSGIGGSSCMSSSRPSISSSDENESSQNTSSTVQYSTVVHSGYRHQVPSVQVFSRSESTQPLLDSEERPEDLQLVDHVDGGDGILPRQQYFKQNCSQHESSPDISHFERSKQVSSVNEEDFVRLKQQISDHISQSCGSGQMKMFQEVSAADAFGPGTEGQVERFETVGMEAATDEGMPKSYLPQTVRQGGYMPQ", "UniProt O88507": "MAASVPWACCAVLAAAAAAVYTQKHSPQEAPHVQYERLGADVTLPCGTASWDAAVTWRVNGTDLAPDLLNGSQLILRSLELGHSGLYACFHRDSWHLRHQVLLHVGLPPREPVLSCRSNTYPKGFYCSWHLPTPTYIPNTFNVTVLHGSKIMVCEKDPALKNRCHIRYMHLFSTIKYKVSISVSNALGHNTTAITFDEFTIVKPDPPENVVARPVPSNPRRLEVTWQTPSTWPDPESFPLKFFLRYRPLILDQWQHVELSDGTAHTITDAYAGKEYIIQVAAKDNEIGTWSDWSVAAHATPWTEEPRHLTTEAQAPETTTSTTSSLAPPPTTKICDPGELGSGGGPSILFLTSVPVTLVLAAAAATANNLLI", "UniProt O70394": "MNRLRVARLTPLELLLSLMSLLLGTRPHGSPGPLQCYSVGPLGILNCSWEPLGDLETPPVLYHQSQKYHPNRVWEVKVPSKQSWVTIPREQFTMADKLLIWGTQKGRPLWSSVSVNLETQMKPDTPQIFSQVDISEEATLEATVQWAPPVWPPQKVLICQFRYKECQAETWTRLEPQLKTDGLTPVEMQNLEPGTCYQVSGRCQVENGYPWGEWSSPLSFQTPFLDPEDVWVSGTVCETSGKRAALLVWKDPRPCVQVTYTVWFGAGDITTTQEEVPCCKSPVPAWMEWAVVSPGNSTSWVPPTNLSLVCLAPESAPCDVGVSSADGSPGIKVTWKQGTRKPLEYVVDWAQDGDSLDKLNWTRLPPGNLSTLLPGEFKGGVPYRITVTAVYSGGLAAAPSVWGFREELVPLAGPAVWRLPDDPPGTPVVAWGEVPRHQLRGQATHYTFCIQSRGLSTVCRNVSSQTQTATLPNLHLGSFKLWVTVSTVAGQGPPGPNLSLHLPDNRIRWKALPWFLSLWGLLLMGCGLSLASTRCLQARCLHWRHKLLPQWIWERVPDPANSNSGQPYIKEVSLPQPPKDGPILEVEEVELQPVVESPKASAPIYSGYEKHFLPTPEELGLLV", "UniProt Q00560": "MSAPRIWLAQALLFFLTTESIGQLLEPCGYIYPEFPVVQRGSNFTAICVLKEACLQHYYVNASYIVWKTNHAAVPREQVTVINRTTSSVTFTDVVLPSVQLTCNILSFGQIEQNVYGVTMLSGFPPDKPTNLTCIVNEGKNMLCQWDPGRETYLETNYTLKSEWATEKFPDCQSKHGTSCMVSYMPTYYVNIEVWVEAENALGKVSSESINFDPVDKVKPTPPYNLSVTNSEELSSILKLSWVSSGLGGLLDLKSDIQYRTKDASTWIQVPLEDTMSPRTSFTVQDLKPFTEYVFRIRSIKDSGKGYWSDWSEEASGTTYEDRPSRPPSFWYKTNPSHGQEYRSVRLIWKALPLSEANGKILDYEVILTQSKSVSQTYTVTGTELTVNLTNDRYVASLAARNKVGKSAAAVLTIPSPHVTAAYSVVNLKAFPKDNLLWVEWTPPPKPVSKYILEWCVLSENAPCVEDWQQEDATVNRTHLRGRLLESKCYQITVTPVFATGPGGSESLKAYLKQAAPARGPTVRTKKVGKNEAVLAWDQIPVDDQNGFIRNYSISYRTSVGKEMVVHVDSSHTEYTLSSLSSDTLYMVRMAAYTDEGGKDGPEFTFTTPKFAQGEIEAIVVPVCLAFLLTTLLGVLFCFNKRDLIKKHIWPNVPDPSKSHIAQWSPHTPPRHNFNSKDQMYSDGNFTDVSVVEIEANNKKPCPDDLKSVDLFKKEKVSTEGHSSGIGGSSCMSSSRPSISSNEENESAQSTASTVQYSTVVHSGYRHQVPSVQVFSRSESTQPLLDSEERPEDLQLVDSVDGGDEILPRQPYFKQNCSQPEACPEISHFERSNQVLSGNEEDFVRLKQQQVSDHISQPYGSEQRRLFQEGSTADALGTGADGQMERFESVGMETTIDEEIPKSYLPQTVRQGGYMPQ"}, "source": "patent US8173771B2", "about": "“Humanin receptor or humanin-like polypeptide receptor” (Keio Univeristy, priority 2005, dated 2012)", "key": {"[1]": {"target": "C-terminally myc-tagged human WSX-1 (mycHis-WSX-1) (human) (UniProt Q6UWB1)", "assay": "immunofluorescence-based HN binding assay (1), F11 cells overexpressing human WSX-1 and human gp130"}, "[2]": {"target": "T1, C-terminally V5-tagged human CNTF-R (V5-CNTF-R) (human) (UniProt P26992)", "T1 sequence (looked up)": "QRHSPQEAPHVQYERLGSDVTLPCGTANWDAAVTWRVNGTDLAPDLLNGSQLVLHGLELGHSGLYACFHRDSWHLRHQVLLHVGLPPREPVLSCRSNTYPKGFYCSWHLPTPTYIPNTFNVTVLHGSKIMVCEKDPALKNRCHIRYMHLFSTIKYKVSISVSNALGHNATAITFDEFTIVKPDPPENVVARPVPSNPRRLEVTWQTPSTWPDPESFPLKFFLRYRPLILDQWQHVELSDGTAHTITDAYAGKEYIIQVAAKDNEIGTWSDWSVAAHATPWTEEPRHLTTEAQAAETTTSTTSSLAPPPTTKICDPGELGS", "assay": "immunofluorescence-based HN binding assay (1), F11 cells overexpressing human CNTF-R and human gp130"}, "[3]": {"target": "Humanin receptor (HNR) overexpressed in F11 cells: human CNTF-R/WSX-1/gp130 (human) (UniProt P26992+Q6UWB1+P40189)", "assay": "immunofluorescence-based HN binding assay (1), F11 cells overexpressing human WSX-1, human CNTF-R and human gp130"}, "[4]": {"target": "T2, endogenous Humanin receptor (HNR) on F11 cells and on mouse primary cortical neurons (PCN) (mouse) (UniProt O88507+O70394+Q00560)", "assay": "cold competitor in binding assay (2), F11 cells at endogenous receptor level"}, "[5]": {"target": "T1, C-terminally V5-tagged human CNTF-R (V5-CNTF-R) (human)", "assay": "pull-down with HN-Sepharose 4B from lysates of F11 cells overexpressing CNTF-R, immunoblot"}, "[6]": {"target": "C-terminally myc-tagged human WSX-1 (mycHis-WSX-1) (human) (UniProt Q6UWB1)", "assay": "pull-down with HN-Sepharose 4B from lysates of F11 cells overexpressing WSX-1, immunoblot"}, "[7]": {"target": "T2, endogenous Humanin receptor (HNR) on F11 cells and on mouse primary cortical neurons (PCN) (mouse)", "assay": "binding assay (2) with biotin-HNG on F11 cells after simultaneous siRNA knock-down of CNTF-R and WSX-1"}, "[8]": {"target": "T2, endogenous Humanin receptor (HNR) on F11 cells and on mouse primary cortical neurons (PCN) (mouse)", "assay": "immunofluorescence HN-binding assay with biotin-HN on F11 cells after siRNA knock-down of WSX-1 and CNTF-R"}}, "note": "These are yes or no findings as the source states them, for the method shown. For part of these data: In cells and extracts the contact can be indirect. Some results given as binding are weak or reduced against the parent protein; the word gives no strength. For part of these data: Tags and fused reporters may be left off the sequences shown."}
{"binder": "MAPRGFSCLLLLTGEIDLPVKRRA (peptide, not shown: small tags and cut ends, biotin label, position not stated)", "note": "[biotin-labeled HNG-FLAG]", "values": [{"measurement": "binding", "setting": "[1]", "value": "binds"}, {"measurement": "binding", "setting": "[2]", "value": "binds"}, {"measurement": "binding", "setting": "[3]", "value": "binds"}]}
{"binder": "MAPRGFSCLLLLTSEIDLPVKRRA (Synthetic 24-residue peptide; elsewhere it was used free and unlabeled; also called synthetic Humanin)", "note": "[Humanin (HN)]", "values": [{"measurement": "binding", "setting": "[4]", "value": "binds"}, {"measurement": "binding", "setting": "[5]", "value": "binds"}, {"measurement": "binding", "setting": "[6]", "value": "binds"}]}
{"binder": "MAPRGFSCLLLLTGEIDLPVKRRA (also called S14G-HN)", "note": "[S14G-Humanin (HNG)]", "values": [{"measurement": "binding", "setting": "[4]", "value": "binds"}]}
{"binder": "MAPRGFSCLLLLTGEIDLPVKRRA (biotin label, position not stated)", "note": "[Biotin-HNG]", "values": [{"measurement": "binding", "setting": "[7]", "value": "binds"}]}
{"binder": "MAPRGFSCLLLLTSEIDLPVKRRA (biotin label, position not stated)", "note": "[Biotin-HN]", "values": [{"measurement": "binding", "setting": "[8]", "value": "binds"}]}
